Test results published in publication PMC4658663.
No constants are given. Whether binding was seen depends on the method and setting. Binding seen in cells or lysates may run through a third protein. Here binding means that the protein was enriched with, or labelled near, the bait; the list need not be complete. For part of these data: Sequences can lack the tags named with a protein.

Amino acid sequences for entries named in this document (tags omitted).
UniProt P25025: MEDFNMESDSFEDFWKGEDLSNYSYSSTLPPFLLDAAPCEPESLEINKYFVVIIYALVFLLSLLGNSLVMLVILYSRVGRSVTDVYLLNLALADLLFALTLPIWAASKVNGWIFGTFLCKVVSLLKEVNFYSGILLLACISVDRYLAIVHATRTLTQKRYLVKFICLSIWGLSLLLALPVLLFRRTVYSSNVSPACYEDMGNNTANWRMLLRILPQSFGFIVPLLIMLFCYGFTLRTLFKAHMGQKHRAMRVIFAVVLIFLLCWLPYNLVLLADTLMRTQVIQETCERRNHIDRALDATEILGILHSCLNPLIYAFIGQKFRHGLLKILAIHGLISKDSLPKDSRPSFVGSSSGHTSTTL
UniProt P25100: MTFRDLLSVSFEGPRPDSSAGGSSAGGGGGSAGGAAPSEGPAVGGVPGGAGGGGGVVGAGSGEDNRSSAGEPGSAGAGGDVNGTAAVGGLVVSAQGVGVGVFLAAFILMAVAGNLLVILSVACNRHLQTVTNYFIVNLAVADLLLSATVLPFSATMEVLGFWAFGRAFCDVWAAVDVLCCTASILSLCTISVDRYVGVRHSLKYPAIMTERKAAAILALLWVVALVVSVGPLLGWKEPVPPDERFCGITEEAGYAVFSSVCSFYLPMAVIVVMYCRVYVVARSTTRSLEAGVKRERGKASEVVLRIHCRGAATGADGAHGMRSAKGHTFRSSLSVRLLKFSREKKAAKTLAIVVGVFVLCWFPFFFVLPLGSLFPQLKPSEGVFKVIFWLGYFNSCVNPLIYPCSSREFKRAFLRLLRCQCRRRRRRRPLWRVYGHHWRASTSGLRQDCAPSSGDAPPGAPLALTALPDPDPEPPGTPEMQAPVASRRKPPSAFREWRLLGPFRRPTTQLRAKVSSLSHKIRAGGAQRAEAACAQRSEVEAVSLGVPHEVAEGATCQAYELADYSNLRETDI
UniProt P31391: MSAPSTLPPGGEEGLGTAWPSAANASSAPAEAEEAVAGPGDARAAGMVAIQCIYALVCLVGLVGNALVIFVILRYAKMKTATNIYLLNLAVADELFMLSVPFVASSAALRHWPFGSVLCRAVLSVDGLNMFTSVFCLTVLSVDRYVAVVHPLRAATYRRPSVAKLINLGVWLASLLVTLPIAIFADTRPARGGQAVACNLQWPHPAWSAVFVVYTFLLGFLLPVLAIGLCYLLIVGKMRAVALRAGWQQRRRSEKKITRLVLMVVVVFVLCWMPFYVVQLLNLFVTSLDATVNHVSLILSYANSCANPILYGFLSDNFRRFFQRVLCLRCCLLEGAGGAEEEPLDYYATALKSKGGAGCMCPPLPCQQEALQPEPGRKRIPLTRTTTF
UniProt P32745: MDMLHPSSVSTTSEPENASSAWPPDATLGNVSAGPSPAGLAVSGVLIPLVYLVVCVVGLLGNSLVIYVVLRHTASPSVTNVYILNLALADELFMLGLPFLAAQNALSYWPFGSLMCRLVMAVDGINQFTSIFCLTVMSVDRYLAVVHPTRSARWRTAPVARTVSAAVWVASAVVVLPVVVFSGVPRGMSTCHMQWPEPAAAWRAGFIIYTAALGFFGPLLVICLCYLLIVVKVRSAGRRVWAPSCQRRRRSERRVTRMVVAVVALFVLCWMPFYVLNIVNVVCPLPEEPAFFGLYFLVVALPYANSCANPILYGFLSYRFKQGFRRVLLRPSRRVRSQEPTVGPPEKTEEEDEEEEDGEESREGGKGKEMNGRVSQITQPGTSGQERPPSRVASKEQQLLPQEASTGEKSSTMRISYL
UniProt P49682: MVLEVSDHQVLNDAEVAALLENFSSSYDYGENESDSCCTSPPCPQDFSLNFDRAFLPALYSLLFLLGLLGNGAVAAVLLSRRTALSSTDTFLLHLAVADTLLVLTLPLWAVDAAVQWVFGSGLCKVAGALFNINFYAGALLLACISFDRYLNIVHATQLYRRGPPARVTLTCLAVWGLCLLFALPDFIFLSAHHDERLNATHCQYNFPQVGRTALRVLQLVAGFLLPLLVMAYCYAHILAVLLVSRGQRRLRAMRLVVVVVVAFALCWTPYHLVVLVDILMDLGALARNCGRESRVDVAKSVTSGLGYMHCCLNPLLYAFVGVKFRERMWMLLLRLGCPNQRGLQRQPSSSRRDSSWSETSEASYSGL
UniProt P32302: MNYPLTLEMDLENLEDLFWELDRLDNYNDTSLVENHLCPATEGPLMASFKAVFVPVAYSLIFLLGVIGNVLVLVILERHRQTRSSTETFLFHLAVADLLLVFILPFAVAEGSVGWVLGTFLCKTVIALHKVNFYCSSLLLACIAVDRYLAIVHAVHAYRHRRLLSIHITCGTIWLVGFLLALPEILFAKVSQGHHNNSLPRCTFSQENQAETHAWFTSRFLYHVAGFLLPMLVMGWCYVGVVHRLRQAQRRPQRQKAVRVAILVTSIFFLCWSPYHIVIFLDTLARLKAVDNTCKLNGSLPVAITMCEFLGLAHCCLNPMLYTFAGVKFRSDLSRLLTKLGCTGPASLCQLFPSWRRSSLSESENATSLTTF
UniProt Q9NS75: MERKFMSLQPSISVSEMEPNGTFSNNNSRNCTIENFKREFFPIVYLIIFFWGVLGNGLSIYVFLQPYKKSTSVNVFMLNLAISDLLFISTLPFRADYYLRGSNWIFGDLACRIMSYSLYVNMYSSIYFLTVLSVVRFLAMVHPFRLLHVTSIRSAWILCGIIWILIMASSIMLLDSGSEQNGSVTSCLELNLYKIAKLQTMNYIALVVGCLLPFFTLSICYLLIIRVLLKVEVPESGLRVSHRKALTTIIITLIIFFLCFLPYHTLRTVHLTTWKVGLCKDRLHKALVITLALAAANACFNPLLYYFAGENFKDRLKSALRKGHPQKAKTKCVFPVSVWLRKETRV
UniProt O00519: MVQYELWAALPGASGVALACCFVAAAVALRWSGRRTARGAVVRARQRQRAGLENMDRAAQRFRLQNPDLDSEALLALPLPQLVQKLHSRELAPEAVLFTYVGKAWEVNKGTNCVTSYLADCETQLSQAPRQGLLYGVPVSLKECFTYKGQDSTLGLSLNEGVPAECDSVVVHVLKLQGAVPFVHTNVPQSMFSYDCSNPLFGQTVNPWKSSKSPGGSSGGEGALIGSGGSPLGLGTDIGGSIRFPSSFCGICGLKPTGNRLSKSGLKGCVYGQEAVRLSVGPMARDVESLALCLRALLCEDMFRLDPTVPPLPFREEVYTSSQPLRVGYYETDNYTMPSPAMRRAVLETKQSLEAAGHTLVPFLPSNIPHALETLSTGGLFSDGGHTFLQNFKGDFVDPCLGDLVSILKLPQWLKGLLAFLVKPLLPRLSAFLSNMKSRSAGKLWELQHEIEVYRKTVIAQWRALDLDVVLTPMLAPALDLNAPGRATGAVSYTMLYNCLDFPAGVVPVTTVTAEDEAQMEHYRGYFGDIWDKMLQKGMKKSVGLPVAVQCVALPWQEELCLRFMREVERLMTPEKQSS
UniProt Q13136: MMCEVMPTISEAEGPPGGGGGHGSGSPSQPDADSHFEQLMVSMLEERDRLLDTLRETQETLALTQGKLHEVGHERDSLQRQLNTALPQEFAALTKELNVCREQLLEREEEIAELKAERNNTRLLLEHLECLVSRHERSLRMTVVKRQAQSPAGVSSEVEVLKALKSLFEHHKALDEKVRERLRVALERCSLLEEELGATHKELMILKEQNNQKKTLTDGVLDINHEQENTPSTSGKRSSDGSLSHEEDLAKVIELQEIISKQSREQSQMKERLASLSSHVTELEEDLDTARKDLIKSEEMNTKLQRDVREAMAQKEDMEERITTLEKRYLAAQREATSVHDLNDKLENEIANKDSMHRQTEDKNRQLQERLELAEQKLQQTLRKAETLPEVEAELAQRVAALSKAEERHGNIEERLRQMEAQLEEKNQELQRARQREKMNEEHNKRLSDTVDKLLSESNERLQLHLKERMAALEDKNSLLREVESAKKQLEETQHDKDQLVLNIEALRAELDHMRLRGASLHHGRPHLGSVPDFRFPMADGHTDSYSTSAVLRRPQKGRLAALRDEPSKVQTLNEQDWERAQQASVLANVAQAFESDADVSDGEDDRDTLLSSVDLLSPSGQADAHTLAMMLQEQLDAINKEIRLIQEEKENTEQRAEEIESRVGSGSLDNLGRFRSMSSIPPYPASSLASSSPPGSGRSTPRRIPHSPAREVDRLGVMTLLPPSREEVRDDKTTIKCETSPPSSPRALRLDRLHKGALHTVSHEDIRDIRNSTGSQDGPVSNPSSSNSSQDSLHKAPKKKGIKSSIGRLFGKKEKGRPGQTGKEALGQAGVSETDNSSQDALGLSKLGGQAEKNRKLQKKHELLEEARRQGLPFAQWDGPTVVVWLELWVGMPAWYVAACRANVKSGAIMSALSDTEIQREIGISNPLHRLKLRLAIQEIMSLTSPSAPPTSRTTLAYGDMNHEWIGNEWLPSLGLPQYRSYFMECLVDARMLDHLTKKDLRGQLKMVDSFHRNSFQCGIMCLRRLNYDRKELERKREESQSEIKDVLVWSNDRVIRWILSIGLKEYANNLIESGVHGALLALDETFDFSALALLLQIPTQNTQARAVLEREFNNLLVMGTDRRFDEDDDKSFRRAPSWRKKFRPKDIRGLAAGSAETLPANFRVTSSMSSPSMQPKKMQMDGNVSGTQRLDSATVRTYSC
UniProt P31946: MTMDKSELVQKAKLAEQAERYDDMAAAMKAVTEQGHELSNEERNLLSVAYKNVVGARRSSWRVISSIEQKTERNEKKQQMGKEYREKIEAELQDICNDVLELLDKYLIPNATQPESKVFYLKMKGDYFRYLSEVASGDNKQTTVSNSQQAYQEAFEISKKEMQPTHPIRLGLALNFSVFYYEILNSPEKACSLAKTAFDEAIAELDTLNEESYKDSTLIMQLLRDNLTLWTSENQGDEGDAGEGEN
UniProt Q9H4A6: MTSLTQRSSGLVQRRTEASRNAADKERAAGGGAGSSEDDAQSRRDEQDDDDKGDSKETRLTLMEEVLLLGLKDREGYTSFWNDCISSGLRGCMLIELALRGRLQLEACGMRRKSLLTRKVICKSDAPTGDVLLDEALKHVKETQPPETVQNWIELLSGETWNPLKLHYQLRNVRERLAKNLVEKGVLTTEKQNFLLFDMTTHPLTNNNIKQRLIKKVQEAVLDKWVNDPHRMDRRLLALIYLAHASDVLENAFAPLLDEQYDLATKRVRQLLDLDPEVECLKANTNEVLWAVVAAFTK
UniProt P62258: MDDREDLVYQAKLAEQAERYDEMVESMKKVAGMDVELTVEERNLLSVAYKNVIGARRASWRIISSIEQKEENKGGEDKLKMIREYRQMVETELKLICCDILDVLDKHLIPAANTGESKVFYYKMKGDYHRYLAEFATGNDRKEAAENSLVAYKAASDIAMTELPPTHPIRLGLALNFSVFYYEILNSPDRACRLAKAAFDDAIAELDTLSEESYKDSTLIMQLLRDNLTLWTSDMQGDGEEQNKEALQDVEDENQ
UniProt P68400: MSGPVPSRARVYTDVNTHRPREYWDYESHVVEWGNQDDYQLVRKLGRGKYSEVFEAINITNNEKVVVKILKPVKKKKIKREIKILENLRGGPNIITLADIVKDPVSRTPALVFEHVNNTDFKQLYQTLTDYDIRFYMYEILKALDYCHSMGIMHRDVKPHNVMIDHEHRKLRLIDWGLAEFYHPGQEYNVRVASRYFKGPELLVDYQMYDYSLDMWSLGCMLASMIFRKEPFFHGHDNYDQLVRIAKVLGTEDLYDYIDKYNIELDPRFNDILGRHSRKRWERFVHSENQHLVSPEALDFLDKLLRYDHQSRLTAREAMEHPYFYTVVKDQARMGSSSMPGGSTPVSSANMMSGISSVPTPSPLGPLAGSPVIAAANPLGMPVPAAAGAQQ

How the values were obtained:
[1] = target: CXCR2 (chemokine receptor), TAP-tagged (human) (UniProt P25025); assay: affinity purification with mass spectrometry; TAP/MS; TAP-tagged bait transfected alone (or with empty vector) in HEK293T cells; TEV cleavage omitted; eluates on Velos-Pro Orbitrap Elite; protein FDR 2.5%
TAP–ADRA1D (human) = TAP–ADRA1D (human) (UniProt P25100); assay: affinity purification with mass spectrometry; TAP/MS; TAP–ADRA1D transfected in SW480 cells
[2] = target: SSTR4 (somatostatin receptor 4), TAP-tagged (human) (UniProt P31391); assay: affinity purification with mass spectrometry; TAP/MS; TAP-tagged bait transfected alone (or with empty vector) in HEK293T cells; TEV cleavage omitted; eluates on Velos-Pro Orbitrap Elite; protein FDR 2.5%
[3] = target: SSTR3 (somatostatin receptor 3), TAP-tagged (human) (UniProt P32745); assay: as above
[4] = target: CXCR3 (chemokine receptor), TAP-tagged (human) (UniProt P49682); assay: as above
[5] = target: CXCR5 (chemokine receptor), TAP-tagged (human) (UniProt P32302); assay: as above
[6] = target: T1, GALR1 (galanin type I receptor), TAP-tagged (human) (UniProt P47211); assay: as above
T1 sequence: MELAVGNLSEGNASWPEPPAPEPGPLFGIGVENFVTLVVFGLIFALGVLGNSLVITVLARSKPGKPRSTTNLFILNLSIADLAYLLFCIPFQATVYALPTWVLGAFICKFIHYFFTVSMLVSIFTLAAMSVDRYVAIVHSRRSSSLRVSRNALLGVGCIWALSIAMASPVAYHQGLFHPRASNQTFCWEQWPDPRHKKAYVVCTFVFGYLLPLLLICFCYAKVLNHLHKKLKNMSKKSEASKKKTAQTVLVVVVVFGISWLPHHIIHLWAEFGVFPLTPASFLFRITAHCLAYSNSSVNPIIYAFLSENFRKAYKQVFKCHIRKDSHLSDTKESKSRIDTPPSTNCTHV

[7] = target: CYSLTR2 (cysteinyl leukotriene 2 receptor), TAP-tagged (human) (UniProt Q9NS75); assay: as above

## FAAH (from UniProt O00519 1-579)
[1]
  binding: binds

## PPFIA1 (from UniProt Q13136 1-1202)
TAP–ADRA1D (human)
  binding: binds

## YWHAB (from UniProt P31946 1-246)
[2]
  binding: binds

## PPFIBP1 (from UniProt Q86W92 1-1011)
TAP–ADRA1D (human)
  binding: binds

## GOLPH3 (from UniProt Q9H4A6 1-298)
[3]
  binding: binds

## YWHAE (from UniProt P62258 1-255)
[2]
  binding: binds

## CSNK2A1 (from UniProt P68400 1-391)
[3]
  binding: binds

B1: YWHAH (protein, UniProt Q04917 1-246)
chain: MGDREQLLQRARLAEQAERYDDMASAMKAVTELNEPLSNEDRNLLSVAYKNVVGARRSSWRVISSIEQKTMADGNEKKLEKVKAYREKIEKELETVCNDVLSLLDKFLIKNCNDFQYESKVFYLKMKGDYYRYLAEVASGEKKNSVVEASEAAYKEAFEISKEQMQPTHPIRLGLALNFSVFYYEIQNAPEQACLLAKQAFDDAIAELDTLNEDSYKDSTLIMQLLRDNLTLWTSDQQDEEAGEGN
[2]
  binding: binds

B2: GHDC (protein, UniProt Q8N2G8 18-530)
chain: LLRQQRSQDARLSWLAGLQHRVAWGALVWAATWQRRRLEQSTLHVHQSQQQALRWCLQGAQRPHCSLRRSTDISTFRNHLPLTKASQTQQEDSGEQPLPPTSNQDLGEASLQATLLGLAALNKAYPEVLAQGRTARVTLTSPWPRPLPWPGNTLGQVGTPGTKDPRALLLDALRSPGLRALEAGTAVELLDVFLGLETDGEELAGAIAAGNPGAPLRERAAELREALEQGPRGLALRLWPKLQVVVTLDAGGQAEAVAALGALWCQGLAFFSPAYAASGGVLGLNLQPEQPHGLYLLPPGAPFIELLPVKEGTQEEAASTLLLAEAQQGKEYELVLTDRASLTRCRLGDVVRVVGAYNQCPVVRFICRLDQTLSVRGEDIGEDLFSEALGRAVGQWAGAKLLDHGCVESSILDSSAGSAPHYEVFVALRGLRNLSEENRDKLDHCLQEASPRYKSLRFWGSVGPARVHLVGQGAFRALRAALAACPSSPFPPAMPRVLRHRHLAQCLQERVVS
[4]
  binding: binds
[5]
  binding: binds

B3: PDZ domain-containing 8 (PDZD8) (protein, UniProt Q8NEN9 1-1154)
chain: MGLLLMILASAVLGSFLTLLAQFFLLYRRQPEPPADEAARAGEGFRYIKPVPGLLLREYLYGGGRDEEPSGAAPEGGATPTAAPETPAPPTRETCYFLNATILFLFRELRDTALTRRWVTKKIKVEFEELLQTKTAGRLLEGLSLRDVFLGETVPFIKTIRLVRPVVPSATGEPDGPEGEALPAACPEELAFEAEVEYNGGFHLAIDVDLVFGKSAYLFVKLSRVVGRLRLVFTRVPFTHWFFSFVEDPLIDFEVRSQFEGRPMPQLTSIIVNQLKKIIKRKHTLPNYKIRFKPFFPYQTLQGFEEDEEHIHIQQWALTEGRLKVTLLECSRLLIFGSYDREANVHCTLELSSSVWEEKQRSSIKTVELIKGNLQSVGLTLRLVQSTDGYAGHVIIETVAPNSPAAIADLQRGDRLIAIGGVKITSTLQVLKLIKQAGDRVLVYYERPVGQSNQGAVLQDNFGQLEENFLSSSCQSGYEEEAAGLTVDTESRELDSEFEDLASDVRAQNEFKDEAQSLSHSPKRVPTTLSIKPLGAISPVLNRKLAVGSHPLPPKIQSKDGNKPPPLKTSEITDPAQVSKPTQGSAFKPPVPPRPQAKVPLPSADAPNQAEPDVLVEKPEKVVPPPLVDKSAEKQAKNVDAIDDAAAPKQFLAKQEVAKDVTSETSCPTKDSSDDRQTWESSEILYRNKLGKWTRTRASCLFDIEACHRYLNIALWCRDPFKLGGLICLGHVSLKLEDVALGCLATSNTEYLSKLRLEAPSPKAIVTRTALRNLSMQKGFNDKFCYGDITIHFKYLKEGESDHHVVTNVEKEKEPHLVEEVSVLPKEEQFVGQMGLTENKHSFQDTQFQNPTWCDYCKKKVWTKAASQCMFCAYVCHKKCQEKCLAETSVCGATDRRIDRTLKNLRLEGQETLLGLPPRVDAEASKSVNKTTGLTRHIINTSSRLLNLRQVSKTRLSEPGTDLVEPSPKHTPNTSDNEGSDTEVCGPNSPSKRGNSTGIKLVRKEGGLDDSVFIAVKEIGRDLYRGLPTEERIQKLEFMLDKLQNEIDQELEHNNSLVREEKETTDTRKKSLLSAALAKSGERLQALTLLMIHYRAGIEDIETLESLSLDQHSKKISKYTDDTEEDLDNEISQLIDSQPFSSISDDLFGPSESV
[6]
  binding: binds

B4: PLD3 (protein, UniProt Q8IV08 1-490)
chain: MKPKLMYQELKVPAEEPANELPMNEIEAWKAAEKKARWVLLVLILAVVGFGALMTQLFLWEYGDLHLFGPNQRPAPCYDPCEAVLVESIPEGLDFPNASTGNPSTSQAWLGLLAGAHSSLDIASFYWTLTNNDTHTQEPSAQQGEEVLRQLQTLAPKGVNVRIAVSKPSGPQPQADLQALLQSGAQVRMVDMQKLTHGVLHTKFWVVDQTHFYLGSANMDWRSLTQVKELGVVMYNCSCLARDLTKIFEAYWFLGQAGSSIPSTWPRFYDTRYNQETPMEICLNGTPALAYLASAPPPLCPSGRTPDLKALLNVVDNARSFIYVAVMNYLPTLEFSHPHRFWPAIDDGLRRATYERGVKVRLLISCWGHSEPSMRAFLLSLAALRDNHTHSDIQVKLFVVPADEAQARIPYARVNHNKYMVTERATYIGTSNWSGNYFTETAGTSLLVTQNGRGGLRSQLEAIFLRDWDSPYSHDLDTSADSVGNACRLL
[7]
  binding: binds

B5: LIN7C (protein, UniProt Q9NUP9 1-197)
chain: MAALGEPVRLERDICRAIELLEKLQRSGEVPPQKLQALQRVLQSEFCNAVREVYEHVYETVDISSSPEVRANATAKATVAAFAASEGHSHPRVVELPKTEEGLGFNIMGGKEQNSPIYISRIIPGGIADRHGGLKRGDQLLSVNGVSVEGEHHEKAVELLKAAQGKVKLVVRYTPKVLEEMESRFEKMRSAKRRQQT
[7]
  binding: binds

B6: MPP7 (protein, UniProt Q5T2T1 1-576)
chain: MPALSTGSGSDTGLYELLAALPAQLQPHVDSQEDLTFLWDMFGEKSLHSLVKIHEKLHYYEKQSPVPILHGAAALADDLAEELQNKPLNSEIRELLKLLSKPNVKALLSVHDTVAQKNYDPVLPPMPEDIDDEEDSVKIIRLVKNREPLGATIKKDEQTGAIIVARIMRGGAADRSGLIHVGDELREVNGIPVEDKRPEEIIQILAQSQGAITFKIIPGSKEETPSKEGKMFIKALFDYNPNEDKAIPCKEAGLSFKKGDILQIMSQDDATWWQAKHEADANPRAGLIPSKHFQERRLALRRPEILVQPLKVSNRKSSGFRKSFRLSRKDKKTNKSMYECKKSDQYDTADVPTYEEVTPYRRQTNEKYRLVVLVGPVGVGLNELKRKLLISDTQHYGVTVPHTTRARRSQESDGVEYIFISKHLFETDVQNNKFIEYGEYKNNYYGTSIDSVRSVLAKNKVCLLDVQPHTVKHLRTLEFKPYVIFIKPPSIERLRETRKNAKIISSRDDQGAAKPFTEEDFQEMIKSAQIMESQYGHLFDKIIINDDLTVAFNELKTTFDKLETETHWVPVSWLHS
[7]
  binding: binds

B7: LIN7A (protein, UniProt O14910 1-233)
chain: MLKPSVTSAPTADMATLTVVQPLTLDRDVARAIELLEKLQESGEVPVHKLQSLKKVLQSEFCTAIREVYQYMHETITVNGCPEFRARATAKATVAAFAASEGHSHPRVVELPKTDEGLGFNVMGGKEQNSPIYISRIIPGGVAERHGGLKRGDQLLSVNGVSVEGEHHEKAVELLKAAKDSVKLVVRYTPKVLEEMEARFEKLRTARRRQQQQLLIQQQQQQQQQQTQQNHMS
TAP–ADRA1D (human)
  binding: binds
